# Laboratory results taken from the supplement of paper PMC8728848.
# This is one part of the list.
# B1: GS7807F-bth-514-18-514 (Bacteroides thetaiotaomicron) (protein)
# chain: AGSCTGNFEEYNTNQFQIHEADPSTLMKSMIETIVNIQQNDSQMMDQMVGQLGGYLTCANVWSGTNFGTFNQSDAWNAGPWNTNFEKIYGNFFQIQEATNESGHYYAFARMIRAITMLRVADCYGPMPYSQVKKGNFYVAYDTEEQVYKNIMEDFASAANVLYNYYKDTNGNAPLASNDPVFSGNYANWARLANSMRLRVAIRISTAYPEMAKENAEAAASHEAGLIEANNDNAMMDCGSQTNPYQLAAVSWGDLRVNANIVDYMNGYGDPRMSKYFNHSTFTGHTQEYVGMRSGEDGFAKSDVAGYSIPAITGTSKLLVFCAAETAFLRAEGKLKNWSVGNKSAKEYYEEGIKLSMEQYGTTMPDNYLTNTEKPTVSHNNDPRGHAYTISNTVAVAWNDNNEEENLQRIITQKWIANYPLGLEAWAEYRRTGYPELYPCIDNLSPSGVDSKRGMRRLRFPYTEVQNNHSNYQQGVSYLKNGGPDNEATDLSWGKTN
# Assays:
# Test in all cases: glycan array binding signal (z-score within array); higher = stronger binding
# Conditions in all cases: glycan notation: IUPAC condensed, linker removed
# [1] = target: Fuc(a1-2)Gal(b1-4)GlcNAc(b1-3)Gal(b1-4)GlcNAc(b1-3)Gal(b1-4)GlcNAc
# Procedure, shortened: (§1)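 From the Consortium for Functional Glycomics database, 3228 arrays were curated, keeping only those whose protein sequence was available. Binding is given as a within-array Z-score averaged across arrays sharing a protein sequence and across linkers. Negative Z-scores can be read as non-binding.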
# [2] = target: Fuc(a1-2)Gal(b1-4)GlcNAc(b1-3)GalNAc
# Procedure, shortened: as §1
# [3] = target: Fuc(a1-2)Gal(b1-4)GlcNAc(b1-3)[Fuc(a1-2)Gal(b1-4)GlcNAc(b1-6)]GalNAc
# Procedure, shortened: as §1
# [4] = target: Fuc(a1-2)Gal(b1-4)GlcNAc(b1-3)[Fuc(a1-3)[Gal(b1-4)]GlcNAc(b1-6)]Gal(b1-4)Glc
# Procedure, shortened: as §1
# [5] = target: Fuc(a1-2)Gal(b1-4)GlcNAc(b1-6)GalNAc
# Procedure, shortened: as §1
# [6] = target: Fuc(a1-2)Gal(b1-4)GlcNAc6S
# Procedure, shortened: as §1
# [7] = target: Fuc(a1-2)Gal(b1-4)[Fuc(a1-3)]GlcNAc
# Procedure, shortened: as §1
# [8] = target: Fuc(a1-2)Gal(b1-4)[Fuc(a1-3)]GlcNAc(b1-2)Man(a1-3)[Fuc(a1-2)Gal(b1-4)[Fuc(a1-3)]GlcNAc(b1-2)Man(a1-6)]Man(b1-4)GlcNAc(b1-4)[Fuc(a1-6)]GlcNAc
# Procedure, shortened: as §1
# [9] = target: Fuc(a1-2)Gal(b1-4)[Fuc(a1-3)]GlcNAc(b1-2)[Fuc(a1-2)Gal(b1-4)[Fuc(a1-3)]GlcNAc(b1-4)]Man(a1-3)[Fuc(a1-2)Gal(b1-4)[Fuc(a1-3)]GlcNAc(b1-2)Man(a1-6)]Man(b1-4)GlcNAc(b1-4)GlcNAc
# Procedure, shortened: as §1
# [10] = target: Fuc(a1-2)Gal(b1-4)[Fuc(a1-3)]GlcNAc(b1-3)Gal(b1-4)[Fuc(a1-3)]GlcNAc
# Procedure, shortened: as §1
# [11] = target: Fuc(a1-2)Gal(b1-4)[Fuc(a1-3)]GlcNAc(b1-3)Gal(b1-4)[Fuc(a1-3)]GlcNAc(b1-3)Gal(b1-4)[Fuc(a1-3)]GlcNAc
# Procedure, shortened: as §1
# [12] = target: Fuc(a1-2)Gal(b1-4)[Fuc(a1-3)]GlcNAc(b1-3)GalNAc
# Procedure, shortened: as §1
# [13] = target: Fuc(a1-2)Gal(b1-4)[Fuc(a1-3)]GlcNAc(b1-3)[Neu5Ac(a2-6)Gal(b1-4)GlcNAc(b1-6)]Gal(b1-4)Glc
# Procedure, shortened: as §1
# [14] = target: Fuc(a1-2)Gal3S(b1-4)GlcNAc
# Procedure, shortened: as §1
# [15] = target: Fuc(a1-2)Gal6S(b1-3)GlcNAc
# Procedure, shortened: as §1
# [16] = target: Fuc(a1-2)Gal6S(b1-3)GlcNAc6S
# Procedure, shortened: as §1
# [17] = target: Fuc(a1-2)Gal6S(b1-4)Glc
# Procedure, shortened: as §1
# [18] = target: Fuc(a1-2)Gal6S(b1-4)Glc6S
# Procedure, shortened: as §1
# [19] = target: Fuc(a1-2)[Gal(a1-3)]Gal
# Procedure, shortened: as §1
# [20] = target: Fuc(a1-2)[Gal(a1-3)]Gal(b1-3)GalNAc
# Procedure, shortened: as §1
# [21] = target: Fuc(a1-2)[Gal(a1-3)]Gal(b1-3)GalNAc(b1-3)Gal(a1-4)Gal(b1-4)Glc
# Procedure, shortened: as §1
# [22] = target: Fuc(a1-2)[Gal(a1-3)]Gal(b1-3)GlcNAc
# Procedure, shortened: as §1
# [23] = target: Fuc(a1-2)[Gal(a1-3)]Gal(b1-3)GlcNAc(b1-2)Man(a1-3)[Fuc(a1-2)[Gal(a1-3)]Gal(b1-3)GlcNAc(b1-2)Man(a1-6)]Man(b1-4)GlcNAc(b1-4)GlcNAc
# Procedure, shortened: as §1
# [24] = target: Fuc(a1-2)[Gal(a1-3)]Gal(b1-3)GlcNAc(b1-2)Man(a1-3)[Fuc(a1-2)[Gal(a1-3)]Gal(b1-3)GlcNAc(b1-2)Man(a1-6)]Man(b1-4)GlcNAc(b1-4)[Fuc(a1-6)]GlcNAc
# Procedure, shortened: as §1
# [25] = target: Fuc(a1-2)[Gal(a1-3)]Gal(b1-3)GlcNAc(b1-3)GalNAc
# Procedure, shortened: as §1
# [26] = target: Fuc(a1-2)[Gal(a1-3)]Gal(b1-3)GlcNAc(b1-6)GalNAc
# Procedure, shortened: as §1
# [27] = target: Fuc(a1-2)[Gal(a1-3)]Gal(b1-4)Glc
# Procedure, shortened: as §1
# [28] = target: Fuc(a1-2)[Gal(a1-3)]Gal(b1-4)GlcNAc
# Procedure, shortened: as §1
# [29] = target: Fuc(a1-2)[Gal(a1-3)]Gal(b1-4)GlcNAc(b1-2)Man
# Procedure, shortened: as §1
# [30] = target: Fuc(a1-2)[Gal(a1-3)]Gal(b1-4)GlcNAc(b1-2)Man(a1-3)[Fuc(a1-2)[Gal(a1-3)]Gal(b1-4)GlcNAc(b1-2)Man(a1-6)]Man(b1-4)GlcNAc(b1-4)GlcNAc
# Procedure, shortened: as §1
# [31] = target: Fuc(a1-2)[Gal(a1-3)]Gal(b1-4)GlcNAc(b1-2)Man(a1-3)[Fuc(a1-2)[Gal(a1-3)]Gal(b1-4)GlcNAc(b1-2)Man(a1-6)]Man(b1-4)GlcNAc(b1-4)[Fuc(a1-6)]GlcNAc
# Procedure, shortened: as §1
# [32] = target: Fuc(a1-2)[Gal(a1-3)]Gal(b1-4)GlcNAc(b1-3)GalNAc
# Procedure, shortened: as §1
# [33] = target: Fuc(a1-2)[Gal(a1-3)]Gal(b1-4)GlcNAc(b1-3)[Fuc(a1-2)[Gal(a1-3)]Gal(b1-4)GlcNAc(b1-6)]GalNAc
# Procedure, shortened: as §1
# [34] = target: Fuc(a1-2)[Gal(a1-3)]Gal(b1-4)GlcNAc(b1-6)GalNAc
# Procedure, shortened: as §1
# [35] = target: Fuc(a1-2)[Gal(a1-3)]Gal(b1-4)[Fuc(a1-3)]Glc
# Procedure, shortened: as §1
# [36] = target: Fuc(a1-2)[Gal(a1-3)]Gal(b1-4)[Fuc(a1-3)]GlcNAc
# Procedure, shortened: as §1
# [37] = target: Fuc(a1-2)[Gal(a1-3)]Gal(b1-4)[Fuc(a1-3)]GlcNAc(b1-3)GalNAc
# Procedure, shortened: as §1
# [38] = target: Fuc(a1-2)[Gal(a1-4)]Gal(b1-4)GlcNAc
# Procedure, shortened: as §1
# [39] = target: Fuc(a1-2)[GalNAc(a1-3)]Gal
# Procedure, shortened: as §1
# [40] = target: Fuc(a1-2)[GalNAc(a1-3)]Gal(b1-3)GalNAc(a1-3)[Fuc(a1-2)]Gal(b1-4)GlcNAc
# Procedure, shortened: as §1
# [41] = target: Fuc(a1-2)[GalNAc(a1-3)]Gal(b1-3)GalNAc(b1-3)Gal(a1-4)Gal(b1-4)Glc
# Procedure, shortened: as §1
# [42] = target: Fuc(a1-2)[GalNAc(a1-3)]Gal(b1-3)GlcNAc
# Procedure, shortened: as §1
# [43] = target: Fuc(a1-2)[GalNAc(a1-3)]Gal(b1-3)GlcNAc(b1-2)Man(a1-3)[Fuc(a1-2)[GalNAc(a1-3)]Gal(b1-3)GlcNAc(b1-2)Man(a1-6)]Man(b1-4)GlcNAc(b1-4)GlcNAc
# Procedure, shortened: as §1
# [44] = target: Fuc(a1-2)[GalNAc(a1-3)]Gal(b1-3)GlcNAc(b1-2)Man(a1-3)[Fuc(a1-2)[GalNAc(a1-3)]Gal(b1-3)GlcNAc(b1-2)Man(a1-6)]Man(b1-4)GlcNAc(b1-4)[Fuc(a1-6)]GlcNAc
# Procedure, shortened: as §1
# [45] = target: Fuc(a1-2)[GalNAc(a1-3)]Gal(b1-3)GlcNAc(b1-3)GalNAc
# Procedure, shortened: as §1
binder,measurement,setting,value
B1,glycan array binding signal (z-score),[1],-0.824
same,glycan array binding signal (z-score),[2],0.215
same,glycan array binding signal (z-score),[3],0.137
same,glycan array binding signal (z-score),[4],0.222
same,glycan array binding signal (z-score),[5],1.22
same,glycan array binding signal (z-score),[6],-0.78
same,glycan array binding signal (z-score),[7],-0.646
same,glycan array binding signal (z-score),[8],-0.583
same,glycan array binding signal (z-score),[9],-0.286
same,glycan array binding signal (z-score),[10],-0.198
same,glycan array binding signal (z-score),[11],-0.169
same,glycan array binding signal (z-score),[12],1.06
same,glycan array binding signal (z-score),[13],-0.798
same,glycan array binding signal (z-score),[14],-0.31
same,glycan array binding signal (z-score),[15],-0.762
same,glycan array binding signal (z-score),[16],-0.358
same,glycan array binding signal (z-score),[17],-0.341
same,glycan array binding signal (z-score),[18],-0.674
same,glycan array binding signal (z-score),[19],-0.629
same,glycan array binding signal (z-score),[20],-0.384
same,glycan array binding signal (z-score),[21],-0.895
same,glycan array binding signal (z-score),[22],-0.584
same,glycan array binding signal (z-score),[23],0.454
same,glycan array binding signal (z-score),[24],-0.408
same,glycan array binding signal (z-score),[25],-0.663
same,glycan array binding signal (z-score),[26],0.398
same,glycan array binding signal (z-score),[27],-0.407
same,glycan array binding signal (z-score),[28],-0.659
same,glycan array binding signal (z-score),[29],-0.295
same,glycan array binding signal (z-score),[30],1.31
same,glycan array binding signal (z-score),[31],-0.741
same,glycan array binding signal (z-score),[32],-0.338
same,glycan array binding signal (z-score),[33],0.838
same,glycan array binding signal (z-score),[34],-0.607
same,glycan array binding signal (z-score),[35],-0.866
same,glycan array binding signal (z-score),[36],-0.626
same,glycan array binding signal (z-score),[37],3.01
same,glycan array binding signal (z-score),[38],0.545
same,glycan array binding signal (z-score),[39],-0.251
same,glycan array binding signal (z-score),[40],-0.058
same,glycan array binding signal (z-score),[41],-0.111
same,glycan array binding signal (z-score),[42],0.079
same,glycan array binding signal (z-score),[43],-0.844
same,glycan array binding signal (z-score),[44],-0.684
same,glycan array binding signal (z-score),[45],0.416

# Already shown: entries from further up.
binder,measurement,setting,value
B1,glycan array binding signal (z-score),[2],0.215
same,glycan array binding signal (z-score),[3],0.137
